# Primary screen of a compound library

Measurements from “University of Dundee, Small-Polar-MMV Screening Library” (2021), ChEMBL document CHEMBL3988442.

Mtb glucose medium: 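Phenotypic screen: M. tuberculosis growth, glucose 7H9 medium, 3 days; the read-out is not stated. Concentration: 50 µM. The record gives no direction; compounds that gave an IC50 in retests scored well above the rest, so higher reads as more growth inhibition. About 69,000 compounds were tested under these conditions; 1.1% (about 760) showed 50% or more at least once.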
Mtb cholesterol medium: 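Growth of Mycobacterium tuberculosis over 4 days (cholesterol / DPPC medium with tyloxapol); the read-out is not stated. Concentration: 50 µM. The record gives no direction; compounds that gave an IC50 in retests scored well above the rest, so higher reads as more growth inhibition. Size under these conditions: about 69,000 compounds, about 370 of them at 50% or above in at least one test.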

The filed quantity is “Percent Effect” (%).
How 0% and 100% were set is not recorded. Most values in the screen are low, and negative values occur.
The compounds are a random part of those screened.
Two or more numbers in one place are separate tests of the same structure; such repeats can differ widely.

compound: Cc1occc1C(=O)N1CCC2(CCCN(Cc3cccs3)C2)C1.O=C(O)C(F)(F)F (centres unmarked)
Mtb glucose medium: -12.51 & 7.684
Mtb cholesterol medium: -12.93

compound: Cc1ccccc1-n1cnnc1SCC1CCCCO1 (centres unmarked)
Mtb glucose medium: 5.109
Mtb cholesterol medium: 11.29 & 1.171

compound: CCOc1cc(C)nc(N2CCN(C(=O)c3cnc[nH]3)CC2)n1
Mtb glucose medium: -21.13 & 3.902
Mtb cholesterol medium: -2.228

compound: CC(C)C(=O)NC1CCCN(C(=O)c2cc3ccccc3cc2O)C1 (centres unmarked)
Mtb glucose medium: 16.86
Mtb cholesterol medium: 11.92

compound: CC(C)(CNCc1ccc(OCc2cscn2)cc1)C(N)=O.Cl
Mtb glucose medium: -26.16
Mtb cholesterol medium: -3.084

compound: O=C(O)C(F)(F)F.[H][C@@]12CN(C)CCO[C@]1([H])CN(C(=O)COc1ccccc1OC)C2
Mtb glucose medium: -4.079 & -12.42
Mtb cholesterol medium: -3.365

compound: N#Cc1ccc(OC2CCN(C(=O)COCC3CCCO3)CC2)cc1 (centres unmarked)
Mtb glucose medium: -13.95
Mtb cholesterol medium: 12.06

compound: [H][C@@]12C[C@H](C)O[C@]1([H])CCN(C(=O)COCC)C2
Mtb glucose medium: -2.507
Mtb cholesterol medium: -0.6062 & 15.4

compound: CC(C)N1CCCC(CCCc2ccccn2)(C(=O)O)C1 (centres unmarked)
Mtb glucose medium: 21.48
Mtb cholesterol medium: -9.25

compound: c1coc(-c2nc(CNCCn3cccn3)cs2)c1
Mtb glucose medium: 8.019 & -47.6
Mtb cholesterol medium: 6.637

compound: COc1cccc(S(=O)(=O)CCN2CCCC2c2ccc[nH]2)c1 (centres unmarked)
Mtb glucose medium: 8.013 & -10.39
Mtb cholesterol medium: 15.76

compound: CC(C)(C)c1ncc(C(=O)NCCNC(=O)c2ccco2)s1
Mtb glucose medium: -26.32
Mtb cholesterol medium: 11.15

compound: CN1CCCC1c1ccnc(-c2ccccc2)n1 (centres unmarked)
Mtb glucose medium: 1.503
Mtb cholesterol medium: 1.191

compound: CSC(C)C(=O)NCCC(=O)N1CCN(c2ccccn2)CC1 (centres unmarked)
Mtb glucose medium: 4.531
Mtb cholesterol medium: -12.31

compound: C=Cc1ccc(CN2CCCC3(CNC(=O)c4ccccc4O3)C2)cc1 (centres unmarked)
Mtb glucose medium: -0.3033
Mtb cholesterol medium: 8.631

compound: CN(CCO)C[C@@H]1CN(Cc2ccccc2-c2ccccc2)C[C@@H]1CO
Mtb glucose medium: 14.78
Mtb cholesterol medium: -17.48

compound: CCc1noc(C2CCCCN2C(=O)c2ccc3c(c2)OCO3)n1 (centres unmarked)
Mtb glucose medium: -13.04
Mtb cholesterol medium: -6.4

compound: CO[C@@H]1CCN(Cc2nccn2C)[C@H]1Cc1cccnc1.O=C(O)C(F)(F)F.O=C(O)C(F)(F)F
Mtb glucose medium: -20.64
Mtb cholesterol medium: -14.36

compound: COc1nn(C)c2c1CCCN(C(=O)c1cc[nH]n1)C2
Mtb glucose medium: -7.333
Mtb cholesterol medium: 1.097

compound: N#Cc1ccc(CNC(=O)NC2CCN(c3ncccn3)CC2)cc1
Mtb glucose medium: -0.892 & 3.466
Mtb cholesterol medium: -7.966

compound: [H][C@]12CN(c3ncc(CC)cn3)C[C@@]1([H])S(=O)(=O)CC[C@@H]2C(=O)NCC(C)C
Mtb glucose medium: -6.331 & 2.777
Mtb cholesterol medium: -8.42

compound: Cc1ccc(NC(=O)c2n[nH]c(-n3cnnc3)n2)cc1C
Mtb glucose medium: -10.79
Mtb cholesterol medium: -9.016

compound: CN1CCN(c2nc(O)cc(Cc3ccccc3F)n2)CC1
Mtb glucose medium: -15.14
Mtb cholesterol medium: -2.394

compound: [H][C@]1([C@@]2(C)CC[C@H](O)C(C)(C)O2)CC2(CCN(c3ncccn3)CC2)CO1
Mtb glucose medium: -2.764
Mtb cholesterol medium: -17.29 & -4.484

compound: CC(C)c1nnc2n1CCN(C(=O)c1cccc(S(C)(=O)=O)c1)C2
Mtb glucose medium: 3.781
Mtb cholesterol medium: -23.95

compound: Cc1cc(N2CCN(c3ccc(=O)[nH]n3)CC2)nc(-c2ccncc2)n1
Mtb glucose medium: 27.93
Mtb cholesterol medium: -6.067

compound: O=C(Cc1ccc(F)c(Br)c1)N1CCN(CCO)CC1
Mtb glucose medium: -2.235
Mtb cholesterol medium: -5.272

compound: [H][C@@]12CN(C(=O)CO)C[C@]1([H])[C@@H]2CC(=O)Nc1cccnc1
Mtb glucose medium: -7.526
Mtb cholesterol medium: -7.98

compound: O=C(O)C(F)(F)F.O=C(O)C(F)(F)F.c1cncc(N2CCCn3nnc(CN4CCCCC4)c3C2)c1
Mtb glucose medium: 8.694
Mtb cholesterol medium: -10.53

compound: [H][C@@]12CCCCN(C)[C@]1([H])[C@@H](c1ccccc1)CCN2C(=O)c1cnccn1
Mtb glucose medium: 25.66
Mtb cholesterol medium: -0.2411

compound: COc1ccccc1CN(C)c1nc2c(cnn2C)c(=O)[nH]1
Mtb glucose medium: 23.18
Mtb cholesterol medium: 2.229

compound: Cc1ccc(CN[C@@H]2COC[C@H]2c2ccc(F)cc2)cc1C.O=C(O)CC(O)(CC(=O)O)C(=O)O
Mtb glucose medium: 56.52
Mtb cholesterol medium: 47.1

compound: CCOc1ccc(CC(=O)N2C[C@H](C3CC3)[C@@H](N)C2)cc1
Mtb glucose medium: -13 & -3.436
Mtb cholesterol medium: 16.31

compound: Cc1cc(OCC(O)c2nc3c([nH]2)CC(C)(C)CNC3=O)ccc1Cl (centres unmarked)
Mtb glucose medium: 13.92
Mtb cholesterol medium: 6.186

compound: Cc1ccc(S(=O)(=O)N2CCc3nc(C4CCNCC4)ncc3C2)cc1.Cl
Mtb glucose medium: 77.19
Mtb cholesterol medium: 16.59

compound: CC(C)(C)OC(=O)NC1(c2noc(-c3ccoc3)n2)CCC1
Mtb glucose medium: 16.74
Mtb cholesterol medium: 20.86

compound: CC(C)(C)CC(=O)Nc1cnn(-c2ccccc2S(C)(=O)=O)c1
Mtb glucose medium: 0.8818 & 3.055
Mtb cholesterol medium: -2.641

compound: Cn1ccnc1-c1cn(Cc2cn3c(n2)SCC3)nn1
Mtb glucose medium: -0.6194 & 17.66
Mtb cholesterol medium: 5.828

compound: CC(Cn1cncn1)NC(=O)NCC(C)(C)Cc1ccccc1 (centres unmarked)
Mtb glucose medium: -23.06
Mtb cholesterol medium: -8.743

compound: Cc1ccc(NC2CCN(C(=O)c3c(C)noc3C)CC2)nn1
Mtb glucose medium: -12.57
Mtb cholesterol medium: 3.909

compound: COc1ccc(C(=O)N(C)Cc2c(C)noc2C)cn1
Mtb glucose medium: 6.181
Mtb cholesterol medium: -9.192

compound: Cc1ccc2c(cnn2CCC(=O)NCc2csc(C3CC3)n2)c1
Mtb glucose medium: 0.1214 & 6.784
Mtb cholesterol medium: -11.05

compound: CCOC(=O)c1sc(NC(=O)C(C)(C)C)c(C#N)c1C
Mtb glucose medium: -84.48
Mtb cholesterol medium: -68.8

compound: CCn1ncnc1C(C)NC(=O)C1CCN(C(=O)COC)CC1 (centres unmarked)
Mtb glucose medium: 11.54
Mtb cholesterol medium: -3.986

compound: CCCc1nccn1-c1cccc(C(C)O)c1 (centres unmarked)
Mtb glucose medium: -2.096
Mtb cholesterol medium: -11.16

compound: Fc1ccc(CN2CCCn3cnc(COCC4CC4)c3C2)cc1.O=C(O)C(F)(F)F
Mtb glucose medium: -1.231 & -23.68
Mtb cholesterol medium: -29.94

Some entries from above, unchanged:

compound	Mtb glucose medium	Mtb cholesterol medium
O=C(Cc1ccc(F)c(Br)c1)N1CCN(CCO)CC1	-2.235	-5.272
COc1ccc(C(=O)N(C)Cc2c(C)noc2C)cn1	6.181	-9.192
[H][C@]12CN(c3ncc(CC)cn3)C[C@@]1([H])S(=O)(=O)CC[C@@H]2C(=O)NCC(C)C	-6.331 & 2.777	-8.42